Data published in paper PMC7819943, “Rice protein-binding microarrays: a tool to detect cis-acting elements near promoter regions in rice”.
The list shows a part of the results.

Sequences of proteins named here, by UniProt entry; tags and fusion partners are left off.
UniProt Q0JBA9, entry or part of it: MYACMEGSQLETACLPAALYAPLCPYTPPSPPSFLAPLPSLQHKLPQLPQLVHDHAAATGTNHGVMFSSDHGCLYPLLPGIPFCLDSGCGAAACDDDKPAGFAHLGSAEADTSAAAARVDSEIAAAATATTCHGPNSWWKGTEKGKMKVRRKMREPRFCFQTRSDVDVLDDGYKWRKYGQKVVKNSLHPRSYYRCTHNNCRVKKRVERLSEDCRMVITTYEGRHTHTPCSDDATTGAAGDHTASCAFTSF

target: OsWRKY34 (Oryza sativa, UniProt Q0JBA9 1-250); test: protein-binding microarray (RPBM); PBS, 2% BSA, 51.3 ng/ul salmon testes DNA, 50 uM zinc acetate, 200 nM TF, 25 C, 1 h; high values mean tight binding; details: protein: recombinant; tags: N-terminal polyhistidine and DsRed monomer fusion (pET32a); label: CyDye5-dUTP incorporated in the synthesized complementary strand; 3' TTTTT single-stranded linker to array surface; dsDNA, one strand shown
Procedure, shortened: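 A custom Agilent array was converted to double-stranded form by primer extension with Cy5-dUTP and blocked with 2% BSA. Protein at 200 nM in PBS with 2% BSA, salmon testes DNA and 50 µM zinc acetate was applied for 1 h at 25 °C, followed by washing. The proteins were polyhistidine–DsRed N-terminal fusions of transcription factors, expressed in E. coli BL21-CodonPlus and Ni–NTA-purified. The binding signal is per-feature fluorescence intensity (arbitrary units) from an Axon 4000B scanner.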

Sequence | binding signal
GGACCCACTCCGTTTCATAGTTTTTGACTTCTTTTACTGGCGGAGTCACCTAGTGCAG | 8270 fluorescence intensity (a.u.)
GCTGTTCCCGTCGCTGGGCGTCGGCCACCTGAACCCCATGCGGAGTCACCTAGTGCAG | 8420 fluorescence intensity (a.u.)
ATGTATGGCTGTAAGGGTATTTTTGGTATTTTTTTAAAAACGGAGTCACCTAGTGCAG | 8750 fluorescence intensity (a.u.)
TCTTTGCCATTTCGTTTACAGATAGCACTCATTATTATCTCGGAGTCACCTAGTGCAG | 8200 fluorescence intensity (a.u.)
GGACGTTGTGGGAGAGGATTTCGTTTTTTTGTGGGTCCTCCGGAGTCACCTAGTGCAG | 11300 fluorescence intensity (a.u.)
TGCCACTGTTCTATCTTCGTCGTCAAGCTCCATGACCGCCCGGAGTCACCTAGTGCAG | 8060 fluorescence intensity (a.u.)
CGCCCGGCCGCCTACCCTCCCGGATACGTCGGAGGGGAGGCGGAGTCACCTAGTGCAG | 9480 fluorescence intensity (a.u.)
CTCTCTCTCTCACTAGCTAATTAGCTGCTACTACATCTTCCGGAGTCACCTAGTGCAG | 8960 fluorescence intensity (a.u.)
CGACGCCATCCACAACACCTGAGCTGAGGCCGCCGCCGCGCGGAGTCACCTAGTGCAG | 8460 fluorescence intensity (a.u.)
CGAGGAGGAAGCGGAGGGTGGGGAGCGGGTGGGAGTGGCCCGGAGTCACCTAGTGCAG | 10600 fluorescence intensity (a.u.)
ACTTGCACACGGTAATTGACCAAACTCGCTCTATATATATCGGAGTCACCTAGTGCAG | 10400 fluorescence intensity (a.u.)
ACCACTCCAAACTCCACTCGCTGAACTAGCTCTCACATCTCGGAGTCACCTAGTGCAG | 9670 fluorescence intensity (a.u.)
CGATCATCCATGTTACACTGAAGTTTGAACCTGACGAGACCGGAGTCACCTAGTGCAG | 8630 fluorescence intensity (a.u.)
TGGTGACTTTGTCAATCTTCAGGATTTACCGGCTCAGTCTCGGAGTCACCTAGTGCAG | 8400 fluorescence intensity (a.u.)
TGCCGGAGCTCGCCTGCTCCACCGTCCACCCGCGCCGTCCCGGAGTCACCTAGTGCAG | 8130 fluorescence intensity (a.u.)
AAGATAAGTTACTCGTGTTCTTTGCAATTCTCTCGTTTAACGGAGTCACCTAGTGCAG | 8510 fluorescence intensity (a.u.)
TCCTTTGACCAAATCCGAAACTACCAATGTCATGTTCACCCGGAGTCACCTAGTGCAG | 9340 fluorescence intensity (a.u.)
CCAAAATCCCCTCGTCGTCCCGTCGCGCGCGGCCGCTTCCCGGAGTCACCTAGTGCAG | 8990 fluorescence intensity (a.u.)
ATCCCCACCATCTCTCGTGGGGCAGCACACACTGCACGAACGGAGTCACCTAGTGCAG | 8070 fluorescence intensity (a.u.)
TTTCCGTACTAAATTTTGTTCATTCGTTTTATTTATTTTTCGGAGTCACCTAGTGCAG | 17100 fluorescence intensity (a.u.)
ATATGGACTCCATACTCTACTTCTAATATTCCTTATTTTTCGGAGTCACCTAGTGCAG | 8270 fluorescence intensity (a.u.)
ACTTACGACAACCCGCCATGTCTTTTTTCCCGCCATAAGTCGGAGTCACCTAGTGCAG | 9810 fluorescence intensity (a.u.)
CCGGCGCGCGTCGCGGGTTGCTGTTCGTTTGCTGGATCCTCGGAGTCACCTAGTGCAG | 11800 fluorescence intensity (a.u.)
ACCTACCCATTTGACCGTACCCCAAAACAACCGAGAAATTCGGAGTCACCTAGTGCAG | 9620 fluorescence intensity (a.u.)
CACCACACCACATTTCTCTCTCTAGATTTCTCTCTCTCTCCGGAGTCACCTAGTGCAG | 12200 fluorescence intensity (a.u.)
GGCGCACCGTCACGAACCGCATCGGTCCAGCGAGCTATCACGGAGTCACCTAGTGCAG | 8210 fluorescence intensity (a.u.)
CCCCACACCACCACCGCGCGCCCGCATTTCTCCCCGCTCCCGGAGTCACCTAGTGCAG | 12200 fluorescence intensity (a.u.)

Part of the list above in another layout.
Sequence	binding signal
TGGTGACTTTGTCAATCTTCAGGATTTACCGGCTCAGTCTCGGAGTCACCTAGTGCAG	8400 fluorescence intensity (a.u.)
TGCCGGAGCTCGCCTGCTCCACCGTCCACCCGCGCCGTCCCGGAGTCACCTAGTGCAG	8130 fluorescence intensity (a.u.)
AAGATAAGTTACTCGTGTTCTTTGCAATTCTCTCGTTTAACGGAGTCACCTAGTGCAG	8510 fluorescence intensity (a.u.)

(cont.)

Sequence | binding signal
TGTCAGCAGCTGTTGCCGTTTGTACCCATGCCGGGTCACGCGGAGTCACCTAGTGCAG | 9270 fluorescence intensity (a.u.)
CACCTCTGCCGCTGCTCCAAATCGTGTCACTGCTCCTCACCGGAGTCACCTAGTGCAG | 8650 fluorescence intensity (a.u.)
CTATCCTTTTTTTCTTTTTTGGAAAATTGCAACCAAATCACGGAGTCACCTAGTGCAG | 9240 fluorescence intensity (a.u.)
GTTTAGTTGATTTCAGGGCCAGTTCTTGTGGGGTTTTCAACGGAGTCACCTAGTGCAG | 8490 fluorescence intensity (a.u.)
GCGCCGGCGCCGACCCCGTCCTGCCCCACCCGCCGCTGCACGGAGTCACCTAGTGCAG | 8230 fluorescence intensity (a.u.)
CGATTGTTTGTAGTGATTATTAGTGCATGTGAAAGCCATGCGGAGTCACCTAGTGCAG | 8280 fluorescence intensity (a.u.)
TTGATTTCTTTTGCGAGCAGCGTACCCACCGCCGGCGATGCGGAGTCACCTAGTGCAG | 16200 fluorescence intensity (a.u.)
CCTTGGGTTGGCGACATCTCCACCGTACCTCGCCATATCGCGGAGTCACCTAGTGCAG | 8330 fluorescence intensity (a.u.)
AGGCCTCATCTTCTACTCCCACCGTCCCATAAAAACCAACCGGAGTCACCTAGTGCAG | 9570 fluorescence intensity (a.u.)
TCAACTGATTTTCTTTCTTTTACAATCAACTGATTTTCTTCGGAGTCACCTAGTGCAG | 8720 fluorescence intensity (a.u.)
ATTCTACCTCGTTAACCATAGATCCAAACTCTTAACCTCCCGGAGTCACCTAGTGCAG | 8450 fluorescence intensity (a.u.)
GTATGCTGACTTTTTTTTAGGTAAGTGTAAACGGATTATGCGGAGTCACCTAGTGCAG | 8400 fluorescence intensity (a.u.)
CAGTGCGTATTTGCAATATATATATATAGGAAAGTTTCTTCGGAGTCACCTAGTGCAG | 9390 fluorescence intensity (a.u.)
TTACATGCATATTTGATTTTTTTTCTAGAAATTTTGTCTCCGGAGTCACCTAGTGCAG | 8300 fluorescence intensity (a.u.)
CCCGAATCCAACCAATCCCCGCGCCGATTCCCGCCATTTCCGGAGTCACCTAGTGCAG | 8590 fluorescence intensity (a.u.)
CTGCCCGCAACAAATAATGGAATAACTCTATACTTCTCTTCGGAGTCACCTAGTGCAG | 8450 fluorescence intensity (a.u.)
GCATACAGAGTTCCAGAAATTTCCGACTGGTCATCTCATCCGGAGTCACCTAGTGCAG | 9680 fluorescence intensity (a.u.)
GGAATTTGGTCGAGCCGTGTTGTTGGGTTGACCTAGGTGGCGGAGTCACCTAGTGCAG | 10400 fluorescence intensity (a.u.)
CGCGTTTTGCTATCATCTGTTTTACACTTACATTCCTATTCGGAGTCACCTAGTGCAG | 8890 fluorescence intensity (a.u.)
GTTTTTCGTTTTGTCGCCCTTTTTTATTGGACAGTTTGGTCGGAGTCACCTAGTGCAG | 11900 fluorescence intensity (a.u.)
TGATTGTGTTTGTAGACTTGGTTGGTATTGTTGAACGGATCGGAGTCACCTAGTGCAG | 11800 fluorescence intensity (a.u.)
TCTCTTCCGCCACCCACCAATAGATTCACGTTTATAGTCCCGGAGTCACCTAGTGCAG | 8210 fluorescence intensity (a.u.)
TGCTGAAACTTGCAACTGCTATCATGATGTTATGTTACCCCGGAGTCACCTAGTGCAG | 9900 fluorescence intensity (a.u.)
ACCCTTATCATTCGGTTTACGGATATCCCCAGTCGATATACGGAGTCACCTAGTGCAG | 8030 fluorescence intensity (a.u.)
TCCCAGTTAGCATCGATCAACACTTGCATGCAGCTGCTACCGGAGTCACCTAGTGCAG | 8170 fluorescence intensity (a.u.)
GACTAGCATTTTCCGGAAACGACCGCGTCGACTTTATCCACGGAGTCACCTAGTGCAG | 8020 fluorescence intensity (a.u.)
GGATGGCGACCTGTAGCCCGTCTTTTGTTTTCGCTTCGCTCGGAGTCACCTAGTGCAG | 10000 fluorescence intensity (a.u.)

Quoted from the listing.
Value for TTGATTTCTTTTGCGAGCAGCGTACCCACCGCCGGCGATGCGGAGTCACCTAGTGCAG under binding signal: 16200 fluorescence intensity (a.u.)
Value for CGCGTTTTGCTATCATCTGTTTTACACTTACATTCCTATTCGGAGTCACCTAGTGCAG under binding signal: 8890 fluorescence intensity (a.u.)
